The list is a part of this screen's results and no random one: it is rich in T/C values a quarter to a half above the control, in often repeated tests (any T/C) and in doses without a T/C. Further doses and runs are listed elsewhere. T/C is the treated group as % of the vehicle group. For survival time, this PubChem deposit counts one and a half times the control or more as active, and values a quarter to a half above the control carry no call in these data; other NCI protocols may use other cut-offs. Schedules are NCI's codes, read here as Q, the interval in days (D) or hours (H), X, the number of doses. Some T/C values are followed by the survivors on the day toxicity was checked, most often the fifth; where none is given, no animal had died by that day. Some entries hold several experiments; the results are listed from low to high. Some schedules carry Z or #; the key to these is not given.
Tested on: L1210 leukemia ip in BDF1 mice, survival T/C
Test: NCI In Vivo Anticancer Drug Screen. Data for tumor model L1210 Leukemia (intraperitoneal) in B6D2F1 (BDF1) mice
Settings: T/C endpoint: mean survival time, higher T/C = longer survival

## CN(C)/N=N/c1nc[nH]c1C(N)=O
dose: 3.75 mg/kg/injection, schedule: Q01DX009 (ip), vehicle: saline with Tween-80
  T/C: 134 % of control
dose: 11.4 mg/kg/injection, schedule: Q01DX009 (ip), vehicle: saline with Tween-80, evaluated on day 5
  T/C: 105 and 116 % of control
dose: 11.4 mg/kg/injection, schedule: Q01DX009 (ip), vehicle: saline with Tween-80, evaluated on day 60
  T/C: 105 and 116 % of control
dose: 12.5 mg/kg/injection, schedule: Q01DX Z (ip), vehicle: saline
  T/C: 128 % of control
dose: 12.5 mg/kg/injection, schedule: Q#A X Z (ip), vehicle: carboxymethylcellulose (CMC)
  T/C: 134 % of control
dose: 18.0 mg/kg/injection, schedule: Q01DX Z (ip), vehicle: carboxymethylcellulose (CMC)
  T/C: 125 % of control
dose: 21.0 mg/kg/injection, schedule: Q01DX015 (ip), vehicle: carboxymethylcellulose (CMC), evaluated on day 5
  T/C: 105 and 106 % of control
dose: 21.0 mg/kg/injection, schedule: Q01DX015 (ip), vehicle: carboxymethylcellulose (CMC), evaluated on day 45
  T/C: 105 and 106 % of control
dose: 22.7 mg/kg/injection, schedule: Q01DX009 (ip), vehicle: saline with Tween-80, evaluated on day 5
  T/C: 114 and 164 % of control
dose: 22.7 mg/kg/injection, schedule: Q01DX009 (ip), vehicle: saline with Tween-80, evaluated on day 60
  T/C: 114 and 164 % of control
dose: 25.0 mg/kg/injection, schedule: Q01DX009 (ip), vehicle: carboxymethylcellulose (CMC)
  T/C: 107, 117, 119, 124 % of control
dose: 25.0 mg/kg/injection, schedule: Q01DX009 (ip), vehicle: saline with Tween-80
  T/C: 134 % of control
dose: 25.0 mg/kg/injection, schedule: Q01DX Z (im), vehicle: carboxymethylcellulose (CMC)
  T/C: 130 % of control
dose: 25.0 mg/kg/injection, schedule: Q01DX Z (ip), vehicle: carboxymethylcellulose (CMC)
  T/C: 140 % of control
dose: 25.0 mg/kg/injection, schedule: Q01DX Z (sc), vehicle: carboxymethylcellulose (CMC)
  T/C: 128 % of control
dose: 25.0 mg/kg/injection, schedule: Q#A X034 (ip), vehicle: carboxymethylcellulose (CMC)
  T/C: 126 % of control
dose: 25.0 mg/kg/injection, schedule: Q#A X Z (ip), vehicle: carboxymethylcellulose (CMC)
  T/C: 130 and 146 % of control [4 of 6 alive]
dose: 32.0 mg/kg/injection, schedule: Q01DX015 (ip), vehicle: carboxymethylcellulose (CMC), evaluated on day 5
  T/C: 104 and 118 % of control
dose: 32.0 mg/kg/injection, schedule: Q01DX015 (ip), vehicle: carboxymethylcellulose (CMC), evaluated on day 45
  T/C: 104 and 118 % of control
dose: 37.5 mg/kg/injection, schedule: Q01DX Z (ip), vehicle: carboxymethylcellulose (CMC)
  T/C: 127 % of control
dose: 39.0 mg/kg/injection, schedule: Q01DX019 (ip), vehicle: steroid suspending solution, evaluated on day 5
  T/C: 134 % of control
dose: 39.0 mg/kg/injection, schedule: Q01DX019 (ip), vehicle: steroid suspending solution, evaluated on day 30
  T/C: 131 % of control
dose: 45.5 mg/kg/injection, schedule: Q01DX009 (ip), vehicle: saline with Tween-80, evaluated on day 5
  T/C: 114 and 132 % of control
dose: 45.5 mg/kg/injection, schedule: Q01DX009 (ip), vehicle: saline with Tween-80, evaluated on day 60
  T/C: 114 and 132 % of control
dose: 47.0 mg/kg/injection, schedule: Q01DX015 (ip), vehicle: carboxymethylcellulose (CMC), evaluated on day 5
  T/C: 113, 119, 123 % of control
dose: 47.0 mg/kg/injection, schedule: Q01DX015 (ip), vehicle: carboxymethylcellulose (CMC), evaluated on day 45
  T/C: 113 [9 of 10 alive], 120, 123 % of control
dose: 47.5 mg/kg/injection, schedule: Q01DX009 (ip), vehicle: carboxymethylcellulose (CMC)
  T/C: 125, 130, 131 % of control
dose: 49.0 mg/kg/injection, schedule: Q01DX009 (ip), vehicle: carboxymethylcellulose (CMC)
  T/C: 125, 130, 142, 144 % of control
dose: 49.5 mg/kg/injection, schedule: Q01DX005 (ip), vehicle: water, evaluated on day 5
  T/C: 127 % of control
dose: 49.5 mg/kg/injection, schedule: Q01DX005 (ip), vehicle: water, evaluated on day 30
  T/C: 127 % of control
dose: 50.0 mg/kg/injection, schedule: Q01DX005 (ip), vehicle: other
  T/C: 131 % of control
dose: 50.0 mg/kg/injection, schedule: Q01DX006 (iv), vehicle: carboxymethylcellulose (CMC)
  T/C: 136 % of control
dose: 50.0 mg/kg/injection, schedule: Q01DX009 (ip), vehicle: Klucel (hydroxypropylcellulose) (HPC)
  T/C: 103, 106, 109 [5 of 6 alive], 132 % of control
dose: 50.0 mg/kg/injection, schedule: Q01DX009 (ip), vehicle: other
  T/C: 127 % of control
dose: 50.0 mg/kg/injection, schedule: Q01DX009 (ip), vehicle: saline with Tween-80
  T/C: 127 % of control
dose: 50.0 mg/kg/injection, schedule: Q01DX009 (ip), vehicle: water
  T/C: 136 and 144 % of control
dose: 50.0 mg/kg/injection, schedule: Q01DX010 (ip), vehicle: clinical formulation
  T/C: 135 and 137 % of control
dose: 50.0 mg/kg/injection, schedule: Q01DX017 (ip), vehicle: carboxymethylcellulose (CMC)
  T/C: 135 % of control
dose: 50.0 mg/kg/injection, schedule: Q01DX Z (im), vehicle: carboxymethylcellulose (CMC)
  T/C: 141 % of control
dose: 50.0 mg/kg/injection, schedule: Q01DX Z (ip), vehicle: saline
  T/C: 142 % of control

Reference: PubChem BioAssay AID248 (DTP/NCI, 2004)
